In patent US10526345B2, “Compounds as GPR119 agonists” (Mankind Pharma Ltd., priority 2016, dated 2020):
Structures were worked out from names or drawings and are uncertain.

Protein sequences, listed by entry. Tags and fused reporters are not part of them.
UniProt Q8TDV5, whole entry: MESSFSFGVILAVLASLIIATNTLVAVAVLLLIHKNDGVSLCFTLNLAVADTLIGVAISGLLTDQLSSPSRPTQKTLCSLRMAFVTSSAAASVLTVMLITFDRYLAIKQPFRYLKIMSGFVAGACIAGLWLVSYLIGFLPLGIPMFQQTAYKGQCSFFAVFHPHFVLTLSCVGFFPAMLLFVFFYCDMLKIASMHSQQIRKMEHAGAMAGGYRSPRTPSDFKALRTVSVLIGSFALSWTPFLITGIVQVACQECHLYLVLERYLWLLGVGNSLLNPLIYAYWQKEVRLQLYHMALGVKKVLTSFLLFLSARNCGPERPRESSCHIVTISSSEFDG

Biological target: hGPR119 (Homo sapiens, UniProt Q8TDV5)
Assay: In vitro cyclic AMP assay (Cisbio dynamic 2 HTRF kit) in CHO-hGPR119 cells
Conditions: cAMP
Method: cAMP measurements were done using Cisbio dynamic 2 HTRF kit according to the manufacturer's protocol. Briefly, CHO-hGPR119 cells were plated at a cell density of 5000 cells/well/5 μl into a white small volume 384 well plate. The final concentrations of IBMX and DMSO used were 1 mM and 0.5% respectively. Cells were treated with various concentrations of the test compound for 60 min at room temperature. Cells were lysed by buffer containing Anti-cAMP antibody and d2-cAMP reagents and incubated for 1 hour at room temperature. HTRF was measured at 337 nm excitation and emission wavelengths of 665 nm and 620 nm on a microplate reader (Flurostar, BMG Labtech). Graphpad prism software was utilized for EC50 determinations.

Q: For `CC(C)c1noc(N2CCC(C(C)Oc3nc4ccc(-c5cccnc5)nc4s3)CC2)n1` (centres unmarked), which EC50 is on record?
A: 25 to 50 nM

Q: What about the “Induction (% induction at 1 μM)” value (compound at 1 μM, 60 min) of the same compound?
A: 81%
